These are yes or no findings as the source states them, for the method shown. Some results given as binding are weak or reduced against the parent protein; the word gives no strength. For some assays here: Tags and fused reporters may be left off the sequences shown. Each block holds one binder with its values, some of them ahead of it.
Columns and labels:
[1] = molecular target: hSOAT1 dimer construct (66-550) L151W (human) (UniProt P35610); test: SEC; FSEC of hSOAT1 dimer construct with dimer-interface mutations; dimer and monomer fractions
[2] = molecular target: hSOAT1 dimer construct (66-550) A147F (human) (UniProt P35610); test: as above
[3] = molecular target: hSOAT1 dimer construct (66-550) T140R (human) (UniProt P35610); test: as above
[4] = molecular target: N-terminal GFP-tagged N-terminal truncated human SOAT1 (66-550) (human) (UniProt P35610); test: SEC; FSEC thermostability assay: GFP-tagged hSOAT1 dimer construct from HEK293F solubilized in 1% GDN, kept at 4 °C or heated at 45 °C for 10 min, with DMSO or 100 µM CI-976; Superose 6 increase 5/150 in 20 mM Tris pH 8.0, 150 mM NaCl, 0.5 mM DDM
[5] = molecular target: hSOAT1 dimer construct (66-550) V159W (human) (UniProt P35610); test: SEC; FSEC of hSOAT1 dimer construct with dimer-interface mutations; dimer and monomer fractions

B1: hSOAT1 dimer construct (66-550) L151W (domain or fragment, UniProt P35610 66-550)
chain: MKEVGSHFDDFVTNLIEKSASLDNGGCALTTFSVLEGEKNNHRAKDLRAPPEQGKIFIARRSLLDELLEVDHIRTIYHMFIALLIWFILSTLVVDYIDEGRLVLEFSLLSYAFGKFPTVVWTWWIMFLSTFSVPYFLFQHWATGYSKSSHPLIRSLFHGFLFMIFQIGVLGFGPTYVVLAYTLPPASRFIIIFEQIRFVMKAHSFVRENVPRVLNSAKEKSSTVPIPTVNQYLYFLFAPTLIYRDSYPRNPTVRWGYVAMKFAQVFGCFFYVYYIFERLCAPLFRNIKQEPFSARVLVLCVFNSILPGVLILFLTFFAFLHCWLNAFAEMLRFGDRMFYKDWWNSTSYSNYYRTWNVVVHDWLYYYAYKDFLWFFSKRFKSAAMLAVFAVSAVVHEYALAVCLSFFYPVLFVLFMFFGMAFNFIVNDSRKKPIWNVLMWTSLFLGNGVLLCFYSQEWYARQHCPLKNPTFLDYVRPRSWTCRYVF
- binding [1]: binds

B3: hSOAT1 dimer construct (66-550) T140R (domain or fragment, UniProt P35610 66-550)
chain: MKEVGSHFDDFVTNLIEKSASLDNGGCALTTFSVLEGEKNNHRAKDLRAPPEQGKIFIARRSLLDELLEVDHIRRIYHMFIALLILFILSTLVVDYIDEGRLVLEFSLLSYAFGKFPTVVWTWWIMFLSTFSVPYFLFQHWATGYSKSSHPLIRSLFHGFLFMIFQIGVLGFGPTYVVLAYTLPPASRFIIIFEQIRFVMKAHSFVRENVPRVLNSAKEKSSTVPIPTVNQYLYFLFAPTLIYRDSYPRNPTVRWGYVAMKFAQVFGCFFYVYYIFERLCAPLFRNIKQEPFSARVLVLCVFNSILPGVLILFLTFFAFLHCWLNAFAEMLRFGDRMFYKDWWNSTSYSNYYRTWNVVVHDWLYYYAYKDFLWFFSKRFKSAAMLAVFAVSAVVHEYALAVCLSFFYPVLFVLFMFFGMAFNFIVNDSRKKPIWNVLMWTSLFLGNGVLLCFYSQEWYARQHCPLKNPTFLDYVRPRSWTCRYVF
- binding [3]: binds

Other lines, results leading:

- binding [2]: binds
B2: hSOAT1 dimer construct (66-550) A147F (domain or fragment, UniProt P35610 66-550)
chain: MKEVGSHFDDFVTNLIEKSASLDNGGCALTTFSVLEGEKNNHRAKDLRAPPEQGKIFIARRSLLDELLEVDHIRTIYHMFIFLLILFILSTLVVDYIDEGRLVLEFSLLSYAFGKFPTVVWTWWIMFLSTFSVPYFLFQHWATGYSKSSHPLIRSLFHGFLFMIFQIGVLGFGPTYVVLAYTLPPASRFIIIFEQIRFVMKAHSFVRENVPRVLNSAKEKSSTVPIPTVNQYLYFLFAPTLIYRDSYPRNPTVRWGYVAMKFAQVFGCFFYVYYIFERLCAPLFRNIKQEPFSARVLVLCVFNSILPGVLILFLTFFAFLHCWLNAFAEMLRFGDRMFYKDWWNSTSYSNYYRTWNVVVHDWLYYYAYKDFLWFFSKRFKSAAMLAVFAVSAVVHEYALAVCLSFFYPVLFVLFMFFGMAFNFIVNDSRKKPIWNVLMWTSLFLGNGVLLCFYSQEWYARQHCPLKNPTFLDYVRPRSWTCRYVF

- binding [4]: binds
B4: N-terminal GFP-tagged N-terminal truncated human SOAT1 (66-550) (domain or fragment, UniProt P35610 66-550, looked up)
chain: MKEVGSHFDDFVTNLIEKSASLDNGGCALTTFSVLEGEKNNHRAKDLRAPPEQGKIFIARRSLLDELLEVDHIRTIYHMFIALLILFILSTLVVDYIDEGRLVLEFSLLSYAFGKFPTVVWTWWIMFLSTFSVPYFLFQHWATGYSKSSHPLIRSLFHGFLFMIFQIGVLGFGPTYVVLAYTLPPASRFIIIFEQIRFVMKAHSFVRENVPRVLNSAKEKSSTVPIPTVNQYLYFLFAPTLIYRDSYPRNPTVRWGYVAMKFAQVFGCFFYVYYIFERLCAPLFRNIKQEPFSARVLVLCVFNSILPGVLILFLTFFAFLHCWLNAFAEMLRFGDRMFYKDWWNSTSYSNYYRTWNVVVHDWLYYYAYKDFLWFFSKRFKSAAMLAVFAVSAVVHEYALAVCLSFFYPVLFVLFMFFGMAFNFIVNDSRKKPIWNVLMWTSLFLGNGVLLCFYSQEWYARQHCPLKNPTFLDYVRPRSWTCRYVF
notes: human sterol O-acyltransferase 1 (SOAT1), residues 66-550 (N-terminal tetramerization domain deleted); also called hSOAT1 dimer; SOAT1-dimer (66-550); source: HEK293F, transfected, solubilized with 1% GDN (supernatant, not purified); not shown: GFP, N-terminal, kept

- binding [5]: binds
B5: hSOAT1 dimer construct (66-550) V159W (domain or fragment, UniProt P35610 66-550)
chain: MKEVGSHFDDFVTNLIEKSASLDNGGCALTTFSVLEGEKNNHRAKDLRAPPEQGKIFIARRSLLDELLEVDHIRTIYHMFIALLILFILSTLVWDYIDEGRLVLEFSLLSYAFGKFPTVVWTWWIMFLSTFSVPYFLFQHWATGYSKSSHPLIRSLFHGFLFMIFQIGVLGFGPTYVVLAYTLPPASRFIIIFEQIRFVMKAHSFVRENVPRVLNSAKEKSSTVPIPTVNQYLYFLFAPTLIYRDSYPRNPTVRWGYVAMKFAQVFGCFFYVYYIFERLCAPLFRNIKQEPFSARVLVLCVFNSILPGVLILFLTFFAFLHCWLNAFAEMLRFGDRMFYKDWWNSTSYSNYYRTWNVVVHDWLYYYAYKDFLWFFSKRFKSAAMLAVFAVSAVVHEYALAVCLSFFYPVLFVLFMFFGMAFNFIVNDSRKKPIWNVLMWTSLFLGNGVLLCFYSQEWYARQHCPLKNPTFLDYVRPRSWTCRYVF

Source: PMC7234994, “Structural insights into the inhibition mechanism of human sterol O-acyltransferase 1 by a competitive inhibitor” (Nature Communications, 2020)
